Reference: patent US7960415B2, “Caspase inhibitors and uses thereof” (Vertex Pharmaceutical Incoporated, priority 2003, dated 2011)
Some of these results come from one statement about several compounds together.

Chains of the proteins cited; added tags and fusions are not shown. Residues count along the entry.
UniProt Q14790, 385-479 limits assumed: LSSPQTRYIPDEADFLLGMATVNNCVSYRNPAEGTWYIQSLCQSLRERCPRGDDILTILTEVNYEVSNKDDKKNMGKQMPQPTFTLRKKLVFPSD
UniProt Q14790, 217-374 limits assumed: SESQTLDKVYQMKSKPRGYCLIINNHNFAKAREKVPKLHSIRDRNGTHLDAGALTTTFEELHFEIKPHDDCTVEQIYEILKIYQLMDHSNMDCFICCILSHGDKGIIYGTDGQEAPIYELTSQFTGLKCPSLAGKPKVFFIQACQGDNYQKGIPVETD

What was measured:
Type in all cases: biochemical
[1] = target: recombinant, purified human Caspase-8 (Homo sapiens, UniProt Q14790); test: Caspase enzyme assay, fluorogenic substrate cleavage (Caspase-8); conditions: substrate Acetyl-Asp-Glu-Val-Asp-amino-4-methylcoumarin
[2] = target: T1, recombinant, purified human Caspase-1 (Homo sapiens, UniProt P29466); test: Caspase enzyme assay, fluorogenic substrate cleavage (Caspase-1); conditions: substrate Acetyl-Tyr-Val-Ala-Asp-amino-4-methylcoumarin
T1 sequence (P29466 120-297 limits assumed): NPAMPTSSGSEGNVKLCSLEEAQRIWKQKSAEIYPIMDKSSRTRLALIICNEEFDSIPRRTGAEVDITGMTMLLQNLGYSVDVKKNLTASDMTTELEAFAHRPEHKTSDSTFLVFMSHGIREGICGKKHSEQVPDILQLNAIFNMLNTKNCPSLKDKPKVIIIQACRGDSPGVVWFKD
T1 sequence (P29466 317-404 limits assumed): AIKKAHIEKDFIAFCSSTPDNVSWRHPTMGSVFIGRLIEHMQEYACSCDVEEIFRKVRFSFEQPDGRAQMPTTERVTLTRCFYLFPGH

[3] = target: T2, recombinant, purified human Caspase-3 (Homo sapiens, UniProt P42574); test: Caspase enzyme assay, fluorogenic substrate cleavage (Caspase-3); conditions: substrate Acetyl-Asp-Glu-Val-Asp-amino-4-methylcoumarin
T2 sequence (P42574 29-175 limits assumed): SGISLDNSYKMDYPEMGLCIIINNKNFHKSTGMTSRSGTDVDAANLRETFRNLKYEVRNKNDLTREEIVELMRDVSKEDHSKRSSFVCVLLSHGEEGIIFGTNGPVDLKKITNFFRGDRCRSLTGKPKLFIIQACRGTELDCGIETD
T2 sequence (P42574 176-277 limits assumed): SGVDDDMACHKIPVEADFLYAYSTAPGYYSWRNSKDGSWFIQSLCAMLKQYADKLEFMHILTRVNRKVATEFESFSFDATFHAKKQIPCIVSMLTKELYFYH

CC[C@@H](C(=O)NC(CC(=O)O)C(=O)CF)n1cc(C)cc(NC(=O)Cc2ccccc2)c1=O (stereo partly drawn) [Compound 37, (S)-5-Fluoro-3-[2-(5-methyl-2-oxo-3-phenylacetylamino-2H-pyridin-1-yl)-butyrylamino]-4-oxo-pentanoic acid]
kinact, second order rate constant of caspase-8 inactivation [1]: > 50,000 M^−1s^−1
kinact, second order rate constant of caspase-1 inactivation [2]: > 200,000 M^−1s^−1
kinact, second order rate constant of caspase-3 inactivation [3]: > 50,000 M^−1s^−1

CCC(=O)Nc1cccn([C@@H](CC(C)C)C(=O)NC(CC(=O)O)C(=O)CF)c1=O (stereo partly drawn) [Compound 36, (S)-5-Fluoro-3-[4-methyl-2-(2-oxo-3-propionylamino-2H-pyridin-1-yl)-pentanoylamino]-4-oxo-pentanoic acid]
kinact, second order rate constant of caspase-8 inactivation [1]: > 50,000 M^−1s^−1
kinact, second order rate constant of caspase-1 inactivation [2]: > 200,000 M^−1s^−1
kinact, second order rate constant of caspase-3 inactivation [3]: > 50,000 M^−1s^−1

C[C@@H](C(=O)NC(CC(=O)O)C(=O)CF)n1cccc(NC(=O)c2ccccc2)c1=O (stereo partly drawn) [Compound 26, (S)-3-[2-(3-Benzoylamino-2-oxo-2H-pyridin-1-yl)-propionylamino]-5-fluoro-4-oxo-pentanoic acid]
kinact, second order rate constant of caspase-8 inactivation [1]: > 50,000 M^−1s^−1
kinact, second order rate constant of caspase-1 inactivation [2]: > 200,000 M^−1s^−1
kinact, second order rate constant of caspase-3 inactivation [3]: > 50,000 M^−1s^−1
